# Literature values as cited in patent US20160075995A1, “SWEAT GLAND-DERIVED STEM CELLS AND METHODS OF USE” (priority 2014, published 2016).
# At least one structure is not confirmed: it was looked up by name or label, or the drawing left a doubt.
# Test system: BMP receptors, type I: ALK2, ALK3 and ALK6
# Conditions: reported in literature (Hao et al. 2008; Yu et al. 2008)
structure (smiles),measurement,value
c1cc(-c2cnn3cc(-c4ccc(OCCN5CCCCC5)cc4)cnc23)ccn1 [dorsomorphin],"inhibition of BMP receptors, type I (ALK2, ALK3 and ALK6)",selectively inhibit
